Data as given in PubChem BioAssay AID1224828 (NIAID, 2016).

Purpose: 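Regulators linking TLR4 signalling to p65 nuclear translocation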 (primary screen)
System: mouse RAW264.7 G9 macrophage reporter cells (GFP-p65, Tnf promoter-mCherry)
Reagent: siRNA pool against mouse genes, 100 nM
Timing: 2 days siRNA transfection, then 40 min LPS before fixation
Conditions: LPS (Salmonella minnesota R595) at 10 ng/ml
Measured: 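Imaged p65 nuclear translocation ratio, normalised to the plate median, converted to robust z-scores and averaged across two replicates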
Scale: p65 translocation robust z-score: higher = more nuclear NF-kappaB p65 after LPS than the plate median; nuclear/cytoplasmic p65 ratio: higher = more nuclear NF-kappaB p65
Rule for the call: 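Called active when z exceeds 3.3 or falls under -1.56 (median of Tlr4 controls), giving activity score of at least 50; no calls for control wells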
Calls: active = hit (p65 shift raised or lowered); inactive = no clear change
This is a random part of about 17,000 reagents tested. In the full data, 762 (4.5%) got an active call. 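Active calls include both raised and lowered p65 entry, mostly lowered; wells with fewer than 50 cells lack a z-score.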 Raw values vary from plate to plate and are shown uncorrected. A number with no mark means an inactive call.

Spint4 (GeneID 78239): p65 translocation robust z-score = 0.64; nuclear/cytoplasmic p65 ratio, rep 1 = 1.53; nuclear/cytoplasmic p65 ratio, rep 2 = 1.62; low cell count flag = enough cells to score
Hepacam2 (GeneID 101202): p65 translocation robust z-score = -0.24; nuclear/cytoplasmic p65 ratio, rep 1 = 1.59; nuclear/cytoplasmic p65 ratio, rep 2 = 1.62; low cell count flag = enough cells to score
Fgf22 (GeneID 67112): p65 translocation robust z-score = -0.77; nuclear/cytoplasmic p65 ratio, rep 1 = 1.42; nuclear/cytoplasmic p65 ratio, rep 2 = 1.41; low cell count flag = enough cells to score
Ahsp (GeneID 170812): p65 translocation robust z-score = 2.69; nuclear/cytoplasmic p65 ratio, rep 1 = 1.97; nuclear/cytoplasmic p65 ratio, rep 2 = 1.85; low cell count flag = enough cells to score
Lrrc24 (GeneID 378937): p65 translocation robust z-score = 0.06; nuclear/cytoplasmic p65 ratio, rep 1 = 1.34; nuclear/cytoplasmic p65 ratio, rep 2 = 1.5; low cell count flag = enough cells to score
4930449I24Rik (GeneID 67410): nuclear/cytoplasmic p65 ratio, rep 1 = 1.57; nuclear/cytoplasmic p65 ratio, rep 2 = 1.42; low cell count flag = fewer than 50 cells per well; well left out of scoring
Slc60a2a (GeneID 215929): p65 translocation robust z-score = -1.87 (active); nuclear/cytoplasmic p65 ratio, rep 1 = 1.38; nuclear/cytoplasmic p65 ratio, rep 2 = 1.34; low cell count flag = enough cells to score
H2-T24 (GeneID 15042): p65 translocation robust z-score = -0.12; nuclear/cytoplasmic p65 ratio, rep 1 = 1.76; nuclear/cytoplasmic p65 ratio, rep 2 = 1.4; low cell count flag = enough cells to score
Eif3e (GeneID 16341): p65 translocation robust z-score = 0.1; nuclear/cytoplasmic p65 ratio, rep 1 = 1.51; nuclear/cytoplasmic p65 ratio, rep 2 = 1.35; low cell count flag = enough cells to score
Samd10 (GeneID 229011): p65 translocation robust z-score = -0.82; nuclear/cytoplasmic p65 ratio, rep 1 = 1.44; nuclear/cytoplasmic p65 ratio, rep 2 = 1.46; low cell count flag = enough cells to score
Katnbl1 (GeneID 72425): p65 translocation robust z-score = 0.02; nuclear/cytoplasmic p65 ratio, rep 1 = 1.31; nuclear/cytoplasmic p65 ratio, rep 2 = 1.55; low cell count flag = enough cells to score
Pou4f1 (GeneID 18996): p65 translocation robust z-score = -1.35; nuclear/cytoplasmic p65 ratio, rep 1 = 1.23; nuclear/cytoplasmic p65 ratio, rep 2 = 1.31; low cell count flag = enough cells to score
Colgalt2 (GeneID 269132): p65 translocation robust z-score = 0.15; nuclear/cytoplasmic p65 ratio, rep 1 = 1.58; nuclear/cytoplasmic p65 ratio, rep 2 = 1.75; low cell count flag = enough cells to score
Zbtb20 (GeneID 56490): nuclear/cytoplasmic p65 ratio, rep 1 = 1.31; nuclear/cytoplasmic p65 ratio, rep 2 = 1.21; low cell count flag = fewer than 50 cells per well; well left out of scoring
Golm2 (GeneID 319996): p65 translocation robust z-score = -0.24; nuclear/cytoplasmic p65 ratio, rep 1 = 1.58; nuclear/cytoplasmic p65 ratio, rep 2 = 1.69; low cell count flag = enough cells to score
Prss42 (GeneID 235628): nuclear/cytoplasmic p65 ratio, rep 1 = 1.24; nuclear/cytoplasmic p65 ratio, rep 2 = 1.26; low cell count flag = fewer than 50 cells per well; well left out of scoring
Phf1 (GeneID 21652): p65 translocation robust z-score = 0.02; nuclear/cytoplasmic p65 ratio, rep 1 = 1.5; nuclear/cytoplasmic p65 ratio, rep 2 = 1.41; low cell count flag = enough cells to score
Ddx47 (GeneID 67755): p65 translocation robust z-score = -0.37; nuclear/cytoplasmic p65 ratio, rep 1 = 1.52; nuclear/cytoplasmic p65 ratio, rep 2 = 1.49; low cell count flag = enough cells to score
P2rx7 (GeneID 18439): p65 translocation robust z-score = 0.89; nuclear/cytoplasmic p65 ratio, rep 1 = 1.5; nuclear/cytoplasmic p65 ratio, rep 2 = 1.59; low cell count flag = enough cells to score
Zmynd10 (GeneID 114602): nuclear/cytoplasmic p65 ratio, rep 1 = 1.22; nuclear/cytoplasmic p65 ratio, rep 2 = 1.19; low cell count flag = fewer than 50 cells per well; well left out of scoring
Rnf130 (GeneID 59044): p65 translocation robust z-score = 0.48; nuclear/cytoplasmic p65 ratio, rep 1 = 1.57; nuclear/cytoplasmic p65 ratio, rep 2 = 1.27; low cell count flag = enough cells to score

Already shown: 2 of the entries above.
H2-T24 (GeneID 15042): p65 translocation robust z-score = -0.12; nuclear/cytoplasmic p65 ratio, rep 1 = 1.76; nuclear/cytoplasmic p65 ratio, rep 2 = 1.4; low cell count flag = enough cells to score
Eif3e (GeneID 16341): p65 translocation robust z-score = 0.1; nuclear/cytoplasmic p65 ratio, rep 1 = 1.51; nuclear/cytoplasmic p65 ratio, rep 2 = 1.35; low cell count flag = enough cells to score
